PubChem BioAssay AID1508597 | Cure First, 2020

Assay: 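Genes whose silencing sensitises or protects ovarian cancer cells against rucaparib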 (primary screen)
System: human ovarian carcinoma lines grown from tumours: OCI-P5x (papillary serous) and OCI-C5x (clear cell)
Knock-down reagent: siRNA pool against human genes, 1.25 pmol siRNA per well
Time to read-out: 72 h or 96 h, depending on the cell culture
Treatment: rucaparib 20 µM (about IC30) or vehicle, present until read-out
Measurement: 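Luminescent ATP-based viability assay read 72 or 96 h after transfection, depending on culture, given as normalised percent viability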
Scale: viability, normalised: higher = more viable cells remaining
Rule for the call: 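a well counts as a hit if its normalised viability is under 80 percent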
Meaning of the calls: active = viability under 80%; inactive = viability 80% or more
In all, the deposit lists about 2,100 reagents; this is a part drawn at random. 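Calls flag viability under 80% in either arm, not effects specific to rucaparib; the reference for percent is not stated.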 Reagent sequences are not shown. The record does not give: the 100% reference.

no.	gene	rucaparib or vehicle	cell line	technical replicate	viability, normalised (%)	Outcome
1	POU1F1 (POU class 1 homeobox 1)	Rucaparib	OCI-C5x (clear cell)	1	45.7	active
2	POU1F1 (POU class 1 homeobox 1)	Rucaparib	OCI-C5x (clear cell)	2	37	active
3	POU1F1 (POU class 1 homeobox 1)	Rucaparib	OCI-C5x (clear cell)	3	49.1	active
4	POU1F1 (POU class 1 homeobox 1)	Rucaparib	OCI-P5x (serous)	1	19.3	active
5	POU1F1 (POU class 1 homeobox 1)	Rucaparib	OCI-P5x (serous)	2	33.5	active
6	POU1F1 (POU class 1 homeobox 1)	Rucaparib	OCI-P5x (serous)	3	38.7	active
7	POU1F1 (POU class 1 homeobox 1)	Vehicle	OCI-C5x (clear cell)	1	36.8	active
8	POU1F1 (POU class 1 homeobox 1)	Vehicle	OCI-C5x (clear cell)	2	34.2	active
9	POU1F1 (POU class 1 homeobox 1)	Vehicle	OCI-C5x (clear cell)	3	37.8	active
10	POU1F1 (POU class 1 homeobox 1)	Vehicle	OCI-P5x (serous)	1	46	active
11	POU1F1 (POU class 1 homeobox 1)	Vehicle	OCI-P5x (serous)	2	46.7	active
12	POU1F1 (POU class 1 homeobox 1)	Vehicle	OCI-P5x (serous)	3	119	inactive
13	TEK (TEK receptor tyrosine kinase)	Rucaparib	OCI-C5x (clear cell)	1	53.4	active
14	TEK (TEK receptor tyrosine kinase)	Rucaparib	OCI-C5x (clear cell)	2	70.2	active
15	TEK (TEK receptor tyrosine kinase)	Rucaparib	OCI-C5x (clear cell)	3	71.5	active
16	TEK (TEK receptor tyrosine kinase)	Rucaparib	OCI-P5x (serous)	1	103	inactive
17	TEK (TEK receptor tyrosine kinase)	Rucaparib	OCI-P5x (serous)	2	115	inactive
18	TEK (TEK receptor tyrosine kinase)	Rucaparib	OCI-P5x (serous)	3	91.4	inactive
19	TEK (TEK receptor tyrosine kinase)	Vehicle	OCI-C5x (clear cell)	1	45.7	active
20	TEK (TEK receptor tyrosine kinase)	Vehicle	OCI-C5x (clear cell)	2	57.9	active
21	TEK (TEK receptor tyrosine kinase)	Vehicle	OCI-C5x (clear cell)	3	52.7	active
22	TEK (TEK receptor tyrosine kinase)	Vehicle	OCI-P5x (serous)	1	80.9	inactive
23	TEK (TEK receptor tyrosine kinase)	Vehicle	OCI-P5x (serous)	2	81.5	inactive
24	TEK (TEK receptor tyrosine kinase)	Vehicle	OCI-P5x (serous)	3	61.5	active
25	ACVR2A (activin A receptor type 2A)	Rucaparib	OCI-C5x (clear cell)	1	38.8	active
26	ACVR2A (activin A receptor type 2A)	Rucaparib	OCI-C5x (clear cell)	2	48.7	active
27	ACVR2A (activin A receptor type 2A)	Rucaparib	OCI-C5x (clear cell)	3	53.3	active
28	ACVR2A (activin A receptor type 2A)	Rucaparib	OCI-P5x (serous)	1	72.7	active
29	ACVR2A (activin A receptor type 2A)	Rucaparib	OCI-P5x (serous)	2	61.4	active
30	ACVR2A (activin A receptor type 2A)	Rucaparib	OCI-P5x (serous)	3	53.9	active
31	ACVR2A (activin A receptor type 2A)	Vehicle	OCI-C5x (clear cell)	1	127	inactive
32	ACVR2A (activin A receptor type 2A)	Vehicle	OCI-C5x (clear cell)	2	49.1	active
33	ACVR2A (activin A receptor type 2A)	Vehicle	OCI-C5x (clear cell)	3	70.7	active
34	ACVR2A (activin A receptor type 2A)	Vehicle	OCI-P5x (serous)	1	71	active
35	ACVR2A (activin A receptor type 2A)	Vehicle	OCI-P5x (serous)	2	65.7	active
36	ACVR2A (activin A receptor type 2A)	Vehicle	OCI-P5x (serous)	3	54.9	active
37	UBN1 (ubinuclein 1)	Rucaparib	OCI-C5x (clear cell)	1	45.9	active
38	UBN1 (ubinuclein 1)	Rucaparib	OCI-C5x (clear cell)	2	27.6	active
39	UBN1 (ubinuclein 1)	Rucaparib	OCI-C5x (clear cell)	3	38.2	active
40	UBN1 (ubinuclein 1)	Rucaparib	OCI-P5x (serous)	1	39	active
41	UBN1 (ubinuclein 1)	Rucaparib	OCI-P5x (serous)	2	48.6	active
42	UBN1 (ubinuclein 1)	Rucaparib	OCI-P5x (serous)	3	44.2	active
43	UBN1 (ubinuclein 1)	Vehicle	OCI-C5x (clear cell)	1	27.8	active
44	UBN1 (ubinuclein 1)	Vehicle	OCI-C5x (clear cell)	2	32.1	active
45	UBN1 (ubinuclein 1)	Vehicle	OCI-C5x (clear cell)	3	43.7	active
46	UBN1 (ubinuclein 1)	Vehicle	OCI-P5x (serous)	1	56.1	active
47	UBN1 (ubinuclein 1)	Vehicle	OCI-P5x (serous)	2	58.2	active
48	UBN1 (ubinuclein 1)	Vehicle	OCI-P5x (serous)	3	36	active

Ordered by “viability, normalised (%)” (highest first): 3 of the entries above.
gene	rucaparib or vehicle	cell line	technical replicate	viability, normalised (%)	Outcome
ACVR2A (activin A receptor type 2A)	Vehicle	OCI-C5x (clear cell)	1	127	inactive
ACVR2A (activin A receptor type 2A)	Rucaparib	OCI-P5x (serous)	2	61.4	active
ACVR2A (activin A receptor type 2A)	Rucaparib	OCI-P5x (serous)	3	53.9	active
